No constants are given. Whether binding was seen depends on the method and setting. Binding seen in cells or lysates may run through a third protein. A result given as binding can be weak or reduced; the word gives no strength. Tags and fused reporters may be left off the sequences shown.

The assay has as its target Cr-Sec61β (C. reinhardtii Sec61β) with a C-terminal His-tag (C. reinhardtii). Description: pull-down; co-expression in E. coli BL21 (DE3) of untagged ArsA protein (pET21) with C-terminally His-tagged TA protein (pET28); IMAC (Ni-NTA) co-purification from the soluble lysate, washes with 50 and 100 mM imidazole, elution with 250 mM imidazole, SDS-PAGE; bands confirmed by mass spectrometry for Cr-ArsA1/Cr-TOC34-NTC.

B1: Cr-ArsA2 (C. reinhardtii ArsA2), recombinant, purified (natural protein, UniProt A8IXB8 1-362, looked up)
chain: MAADMPDPTLQNVVDQKELKWIFVGGKGGVGKTTTSSSLAVALAESGTRNRVLIISTDPAHNLSDAFRQKFTKTPTLVNGFTNLFAMEVDPQPDIGEMEQLEWAQDSFLTELAGSIPGIDEAMSFAEVMKQVQTMDYDTIVFDTAPTGHTLRLLNFPTILEKGLSKLVALKGAMGGMMGQVTRMLGGMAGGGEGAADLPDQLLGKVEGMLDVVRKVSAQFKDPLLTTFVAVCIPEFLSLYETERLVQELAKFEIDCRNIVINQIIFPESVGGSRLLDARVRMQQKYLDQFYELYEDFHILQLPLLEEEVRGPEALKAFAVNLLKPYVPAPPTDAAARQAALVSEVAALKKRVAELEAALAKK
notes: ArsA2 of Chlamydomonas reinhardtii, full-length open reading frame, one ATPase domain; pET21 modified with a TEV site between the N-terminal 6His-tag and the polylinker; Seen as dimers and tetramers; also called Dimeric Cr-ArsA2; arsenite transporter ArsA2; source: E. coli BL21 (DE3), purified (Ni-NTA, size-exclusion chromatography)
B1: the binding result is “binds”.

Values taken from article PMC5382584, “In search of tail-anchored protein machinery in plants: reevaluating the role of arsenite transporters” (Scientific Reports, 2017).
